Results are given in words; binding and its absence hold for the method and conditions named. Binding seen in cells or lysates may run through a third protein. Some entries that bind do so weakly or less than the wild type.
Target: T1, semaphorin 3F (UniProt Q13275)
T1 sequence: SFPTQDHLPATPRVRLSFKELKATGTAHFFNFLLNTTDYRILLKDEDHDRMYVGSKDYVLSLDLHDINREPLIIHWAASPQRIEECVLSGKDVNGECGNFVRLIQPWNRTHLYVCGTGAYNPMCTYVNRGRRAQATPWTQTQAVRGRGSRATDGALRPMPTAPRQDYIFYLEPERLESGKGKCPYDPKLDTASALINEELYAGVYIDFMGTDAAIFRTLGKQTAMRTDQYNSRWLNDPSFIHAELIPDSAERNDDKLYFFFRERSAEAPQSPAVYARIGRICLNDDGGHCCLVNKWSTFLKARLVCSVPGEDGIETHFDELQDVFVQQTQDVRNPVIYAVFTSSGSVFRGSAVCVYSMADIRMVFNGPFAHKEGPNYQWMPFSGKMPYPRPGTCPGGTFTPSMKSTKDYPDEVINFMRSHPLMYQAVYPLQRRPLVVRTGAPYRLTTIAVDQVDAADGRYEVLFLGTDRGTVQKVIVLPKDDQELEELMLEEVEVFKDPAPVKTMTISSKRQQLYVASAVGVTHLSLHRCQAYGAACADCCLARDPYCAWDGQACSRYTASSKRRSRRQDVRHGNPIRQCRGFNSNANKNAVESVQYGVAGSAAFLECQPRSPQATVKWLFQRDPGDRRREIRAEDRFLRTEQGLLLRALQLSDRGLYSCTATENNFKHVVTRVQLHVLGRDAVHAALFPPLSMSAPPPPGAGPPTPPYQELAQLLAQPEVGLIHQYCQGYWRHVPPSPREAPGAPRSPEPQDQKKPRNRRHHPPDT
Assay: co-IP; total protein lysates (500 ug) of LoVo cells with SEMA3F OE; IP with anti-SEMA3F antibody and protein A agarose beads at 4°C, 4 washes with cold PBS; rabbit serum as control; Western blot for SEMA3F and P27

By UniProt entry, the sequences of proteins in these tests, tags left out.
UniProt P46527: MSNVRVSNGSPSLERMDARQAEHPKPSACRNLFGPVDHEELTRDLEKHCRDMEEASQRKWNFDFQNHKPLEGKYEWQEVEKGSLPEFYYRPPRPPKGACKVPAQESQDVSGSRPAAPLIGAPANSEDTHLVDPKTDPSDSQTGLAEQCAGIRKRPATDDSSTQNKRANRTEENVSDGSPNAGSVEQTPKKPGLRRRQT

binding: binds
Substance: p27 (from UniProt P46527 1-198)

From PMC9481271
